Test results from publication PMC7812315.
No constants are given. Whether binding was seen depends on the method and setting. Binding seen in cells or lysates may run through a third protein. Some results given as binding are weak or reduced against the parent protein; the word gives no strength.

Sequences of proteins named here, by UniProt entry; tags and fusion partners are left off. A change or cut given only in a name is not applied to a line headed by its entry. A line that says so, or that is headed by a name, gives the form on record, which may keep a tag or linker.
UniProt Q08024: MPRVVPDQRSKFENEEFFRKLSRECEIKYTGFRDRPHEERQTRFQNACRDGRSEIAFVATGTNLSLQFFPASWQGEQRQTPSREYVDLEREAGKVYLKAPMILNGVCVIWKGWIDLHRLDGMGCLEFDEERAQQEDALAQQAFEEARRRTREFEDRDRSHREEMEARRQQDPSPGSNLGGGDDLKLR
RUNX1 R204X (Q01196-8, form named): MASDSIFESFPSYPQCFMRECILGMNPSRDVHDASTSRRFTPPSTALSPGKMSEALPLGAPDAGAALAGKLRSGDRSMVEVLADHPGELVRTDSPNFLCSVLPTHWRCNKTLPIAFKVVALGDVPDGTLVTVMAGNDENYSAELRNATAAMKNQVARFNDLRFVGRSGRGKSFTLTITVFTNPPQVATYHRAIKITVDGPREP
RUNX1 R201Q (Q01196-8, form named): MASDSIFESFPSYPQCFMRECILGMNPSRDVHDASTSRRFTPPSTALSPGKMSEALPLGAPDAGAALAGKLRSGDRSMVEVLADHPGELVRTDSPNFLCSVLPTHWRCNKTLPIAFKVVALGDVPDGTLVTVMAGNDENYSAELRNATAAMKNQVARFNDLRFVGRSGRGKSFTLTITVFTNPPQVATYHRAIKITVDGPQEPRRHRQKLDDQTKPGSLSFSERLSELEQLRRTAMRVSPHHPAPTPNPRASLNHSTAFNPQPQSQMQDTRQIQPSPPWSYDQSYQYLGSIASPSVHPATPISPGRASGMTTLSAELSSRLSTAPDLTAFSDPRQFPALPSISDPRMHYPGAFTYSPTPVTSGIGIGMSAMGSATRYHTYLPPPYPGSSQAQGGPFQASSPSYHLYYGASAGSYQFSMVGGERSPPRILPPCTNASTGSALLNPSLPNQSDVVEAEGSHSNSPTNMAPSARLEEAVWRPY
UniProt Q03347: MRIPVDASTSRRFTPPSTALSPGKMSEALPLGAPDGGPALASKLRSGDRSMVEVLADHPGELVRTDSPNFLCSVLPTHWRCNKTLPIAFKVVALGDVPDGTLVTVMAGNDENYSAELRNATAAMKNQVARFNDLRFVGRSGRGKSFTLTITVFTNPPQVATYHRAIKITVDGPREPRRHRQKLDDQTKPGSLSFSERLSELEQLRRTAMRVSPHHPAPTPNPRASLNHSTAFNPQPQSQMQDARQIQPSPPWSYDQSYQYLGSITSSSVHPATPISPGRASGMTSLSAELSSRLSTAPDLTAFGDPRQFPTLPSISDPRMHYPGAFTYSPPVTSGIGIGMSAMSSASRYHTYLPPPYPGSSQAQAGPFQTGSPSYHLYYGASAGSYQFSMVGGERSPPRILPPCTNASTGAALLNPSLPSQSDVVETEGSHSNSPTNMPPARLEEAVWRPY

Biological target: CBFβ (mouse (endogenous in mouse ESC-derived progenitors)) (UniProt Q08024)
Assay: proximity ligation; in situ PLA (Duolink) on cytospun, formaldehyde-fixed, permeabilised progenitors with or without dox induction of mutant RUNX1; anti-CBFβ paired with anti-RUNX1 (C-terminal), anti-HA or anti-EVI1, 1 h at room temperature

binding	Substance
binds weakly	RUNX1 R204X (from UniProt Q01196-8 1-203) (domain or fragment)
binds	endogenous RUNX1 (from UniProt Q03347 1-451)
binds weakly	RUNX1 R201Q (from UniProt Q01196-8 1-480)
